Reference: the supplement of paper PMC10849652
Some of the results follow.

By UniProt entry, the sequences of proteins in these tests, tags left out. Where a name states a change or a piece, a line headed by the entry shows the natural chain unless it says otherwise.
UniProt Q96BU1: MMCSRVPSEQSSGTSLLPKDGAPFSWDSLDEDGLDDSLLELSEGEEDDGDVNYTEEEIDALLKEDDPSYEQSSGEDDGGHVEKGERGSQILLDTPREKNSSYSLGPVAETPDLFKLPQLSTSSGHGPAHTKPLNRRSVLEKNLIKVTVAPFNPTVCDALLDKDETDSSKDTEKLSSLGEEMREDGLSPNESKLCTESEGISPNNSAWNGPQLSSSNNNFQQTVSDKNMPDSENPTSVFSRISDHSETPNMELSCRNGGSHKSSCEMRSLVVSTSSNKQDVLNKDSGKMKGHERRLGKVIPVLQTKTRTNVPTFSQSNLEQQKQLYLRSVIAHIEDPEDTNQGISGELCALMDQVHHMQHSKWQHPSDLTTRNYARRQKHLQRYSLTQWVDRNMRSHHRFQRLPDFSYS
UniProt Q9NSI8: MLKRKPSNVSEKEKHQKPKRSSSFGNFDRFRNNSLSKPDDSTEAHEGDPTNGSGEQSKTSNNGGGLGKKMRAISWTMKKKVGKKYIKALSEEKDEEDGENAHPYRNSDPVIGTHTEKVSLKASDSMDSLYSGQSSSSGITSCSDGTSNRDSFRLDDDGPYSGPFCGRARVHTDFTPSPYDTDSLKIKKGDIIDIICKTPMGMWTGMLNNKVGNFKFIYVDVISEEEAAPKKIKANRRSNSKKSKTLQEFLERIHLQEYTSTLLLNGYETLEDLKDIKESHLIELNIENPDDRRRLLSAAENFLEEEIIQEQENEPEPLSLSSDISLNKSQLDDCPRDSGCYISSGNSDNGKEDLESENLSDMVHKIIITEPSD
UniProt Q9Y6Y8: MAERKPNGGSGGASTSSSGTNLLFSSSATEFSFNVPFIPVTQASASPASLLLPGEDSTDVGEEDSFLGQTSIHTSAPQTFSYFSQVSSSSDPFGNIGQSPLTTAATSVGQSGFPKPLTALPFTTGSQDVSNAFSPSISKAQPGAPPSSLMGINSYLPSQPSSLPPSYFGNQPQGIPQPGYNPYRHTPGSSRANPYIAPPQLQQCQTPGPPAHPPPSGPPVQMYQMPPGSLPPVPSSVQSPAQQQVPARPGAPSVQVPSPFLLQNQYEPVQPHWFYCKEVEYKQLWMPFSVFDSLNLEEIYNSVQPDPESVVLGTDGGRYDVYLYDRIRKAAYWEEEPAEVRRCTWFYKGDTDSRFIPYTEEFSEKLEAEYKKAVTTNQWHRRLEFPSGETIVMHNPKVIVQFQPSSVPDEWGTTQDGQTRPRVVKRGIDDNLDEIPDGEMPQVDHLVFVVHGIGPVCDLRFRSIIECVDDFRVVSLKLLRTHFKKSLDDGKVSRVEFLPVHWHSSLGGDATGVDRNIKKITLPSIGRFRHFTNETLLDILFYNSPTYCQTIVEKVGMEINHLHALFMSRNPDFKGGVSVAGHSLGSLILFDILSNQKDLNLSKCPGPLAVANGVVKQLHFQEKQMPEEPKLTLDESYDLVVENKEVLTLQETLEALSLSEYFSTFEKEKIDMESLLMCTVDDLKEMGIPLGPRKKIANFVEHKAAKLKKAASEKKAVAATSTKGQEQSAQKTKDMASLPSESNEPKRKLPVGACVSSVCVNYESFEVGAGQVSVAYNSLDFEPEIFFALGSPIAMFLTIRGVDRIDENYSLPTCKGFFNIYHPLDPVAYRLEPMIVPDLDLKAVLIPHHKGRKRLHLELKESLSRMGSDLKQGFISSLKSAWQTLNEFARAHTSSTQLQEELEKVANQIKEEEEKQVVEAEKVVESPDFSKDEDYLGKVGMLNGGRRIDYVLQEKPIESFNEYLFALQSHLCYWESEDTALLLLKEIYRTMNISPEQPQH
UniProt Q86SQ7: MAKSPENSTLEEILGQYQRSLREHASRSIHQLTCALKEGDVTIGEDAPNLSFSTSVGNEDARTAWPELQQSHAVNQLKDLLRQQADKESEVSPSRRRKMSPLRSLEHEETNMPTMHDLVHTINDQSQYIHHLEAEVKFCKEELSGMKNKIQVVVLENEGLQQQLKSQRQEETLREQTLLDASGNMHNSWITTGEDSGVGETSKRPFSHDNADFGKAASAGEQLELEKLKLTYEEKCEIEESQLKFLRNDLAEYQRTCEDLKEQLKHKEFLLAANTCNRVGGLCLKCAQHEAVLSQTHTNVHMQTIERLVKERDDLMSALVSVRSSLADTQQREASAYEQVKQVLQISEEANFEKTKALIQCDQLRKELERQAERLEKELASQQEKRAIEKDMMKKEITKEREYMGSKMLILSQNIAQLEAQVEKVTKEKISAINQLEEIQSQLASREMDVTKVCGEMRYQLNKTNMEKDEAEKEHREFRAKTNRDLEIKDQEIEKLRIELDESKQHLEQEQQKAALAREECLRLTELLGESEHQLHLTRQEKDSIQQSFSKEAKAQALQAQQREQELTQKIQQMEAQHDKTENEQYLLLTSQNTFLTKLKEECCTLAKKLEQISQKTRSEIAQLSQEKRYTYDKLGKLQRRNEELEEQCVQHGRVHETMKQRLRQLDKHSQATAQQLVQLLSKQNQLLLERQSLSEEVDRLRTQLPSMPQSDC
UniProt Q9BWG6: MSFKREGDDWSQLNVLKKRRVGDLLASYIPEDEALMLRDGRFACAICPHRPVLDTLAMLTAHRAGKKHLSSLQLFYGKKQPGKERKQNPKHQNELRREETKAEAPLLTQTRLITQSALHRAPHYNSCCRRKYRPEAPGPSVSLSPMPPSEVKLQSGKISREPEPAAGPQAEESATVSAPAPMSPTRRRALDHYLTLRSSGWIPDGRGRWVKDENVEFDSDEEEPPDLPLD
UniProt Q5VUM1: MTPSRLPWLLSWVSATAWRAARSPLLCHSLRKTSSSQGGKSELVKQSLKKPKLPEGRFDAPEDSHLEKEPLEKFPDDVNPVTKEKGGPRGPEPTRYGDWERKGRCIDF
UniProt Q9NPB0: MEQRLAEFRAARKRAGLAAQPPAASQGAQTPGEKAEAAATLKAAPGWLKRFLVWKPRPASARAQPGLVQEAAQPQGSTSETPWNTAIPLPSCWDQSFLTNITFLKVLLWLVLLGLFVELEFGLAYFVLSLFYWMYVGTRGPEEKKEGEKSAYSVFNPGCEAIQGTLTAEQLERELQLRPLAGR
UniProt O43818: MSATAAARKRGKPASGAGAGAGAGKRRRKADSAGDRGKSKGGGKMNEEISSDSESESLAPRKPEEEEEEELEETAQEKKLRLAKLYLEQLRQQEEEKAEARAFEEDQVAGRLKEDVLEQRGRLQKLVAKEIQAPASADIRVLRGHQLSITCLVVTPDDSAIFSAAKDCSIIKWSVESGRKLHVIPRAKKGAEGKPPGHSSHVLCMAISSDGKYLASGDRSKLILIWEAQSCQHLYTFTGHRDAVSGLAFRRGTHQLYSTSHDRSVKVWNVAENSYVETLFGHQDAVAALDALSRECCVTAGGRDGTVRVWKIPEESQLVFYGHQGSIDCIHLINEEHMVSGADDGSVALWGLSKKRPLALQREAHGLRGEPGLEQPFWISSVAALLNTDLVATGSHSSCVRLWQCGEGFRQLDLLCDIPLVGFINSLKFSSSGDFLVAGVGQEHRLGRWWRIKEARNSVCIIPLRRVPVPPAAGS
UniProt Q96NL6: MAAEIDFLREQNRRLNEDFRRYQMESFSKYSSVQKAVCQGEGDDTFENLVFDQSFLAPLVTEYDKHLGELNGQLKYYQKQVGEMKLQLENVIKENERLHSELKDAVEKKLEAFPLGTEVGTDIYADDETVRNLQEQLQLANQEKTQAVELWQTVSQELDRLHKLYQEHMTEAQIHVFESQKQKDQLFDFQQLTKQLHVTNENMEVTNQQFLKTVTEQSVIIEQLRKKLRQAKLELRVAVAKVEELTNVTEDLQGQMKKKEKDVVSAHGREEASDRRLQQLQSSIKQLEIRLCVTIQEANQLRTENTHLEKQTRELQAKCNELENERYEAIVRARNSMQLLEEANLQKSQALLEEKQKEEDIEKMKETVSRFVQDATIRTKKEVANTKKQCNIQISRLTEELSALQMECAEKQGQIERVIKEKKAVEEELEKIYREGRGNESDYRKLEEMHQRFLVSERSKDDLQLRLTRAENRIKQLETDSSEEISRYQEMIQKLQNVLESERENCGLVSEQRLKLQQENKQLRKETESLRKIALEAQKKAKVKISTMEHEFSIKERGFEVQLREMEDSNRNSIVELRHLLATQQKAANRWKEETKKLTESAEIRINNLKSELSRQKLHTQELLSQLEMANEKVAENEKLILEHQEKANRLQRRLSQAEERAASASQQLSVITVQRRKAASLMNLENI
UniProt O75845: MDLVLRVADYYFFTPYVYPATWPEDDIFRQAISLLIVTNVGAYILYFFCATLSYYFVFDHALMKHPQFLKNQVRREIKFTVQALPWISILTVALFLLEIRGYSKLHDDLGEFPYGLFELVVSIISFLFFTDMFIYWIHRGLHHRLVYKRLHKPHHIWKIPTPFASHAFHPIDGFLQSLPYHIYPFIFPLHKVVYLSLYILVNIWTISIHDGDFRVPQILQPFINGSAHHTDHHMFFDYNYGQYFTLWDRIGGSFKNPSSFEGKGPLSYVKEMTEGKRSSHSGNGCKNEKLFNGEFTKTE
UniProt P23297: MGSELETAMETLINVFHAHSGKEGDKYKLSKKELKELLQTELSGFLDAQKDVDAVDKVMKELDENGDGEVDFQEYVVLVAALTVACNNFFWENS
UniProt Q9Y3A4: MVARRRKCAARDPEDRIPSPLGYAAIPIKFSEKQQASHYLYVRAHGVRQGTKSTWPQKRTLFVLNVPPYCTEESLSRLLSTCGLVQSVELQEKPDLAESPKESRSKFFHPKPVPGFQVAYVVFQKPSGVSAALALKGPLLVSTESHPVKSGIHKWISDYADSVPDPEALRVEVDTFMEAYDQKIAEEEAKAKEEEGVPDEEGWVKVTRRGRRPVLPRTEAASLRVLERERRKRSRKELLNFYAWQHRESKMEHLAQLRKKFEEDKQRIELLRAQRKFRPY
UniProt Q9UPN6: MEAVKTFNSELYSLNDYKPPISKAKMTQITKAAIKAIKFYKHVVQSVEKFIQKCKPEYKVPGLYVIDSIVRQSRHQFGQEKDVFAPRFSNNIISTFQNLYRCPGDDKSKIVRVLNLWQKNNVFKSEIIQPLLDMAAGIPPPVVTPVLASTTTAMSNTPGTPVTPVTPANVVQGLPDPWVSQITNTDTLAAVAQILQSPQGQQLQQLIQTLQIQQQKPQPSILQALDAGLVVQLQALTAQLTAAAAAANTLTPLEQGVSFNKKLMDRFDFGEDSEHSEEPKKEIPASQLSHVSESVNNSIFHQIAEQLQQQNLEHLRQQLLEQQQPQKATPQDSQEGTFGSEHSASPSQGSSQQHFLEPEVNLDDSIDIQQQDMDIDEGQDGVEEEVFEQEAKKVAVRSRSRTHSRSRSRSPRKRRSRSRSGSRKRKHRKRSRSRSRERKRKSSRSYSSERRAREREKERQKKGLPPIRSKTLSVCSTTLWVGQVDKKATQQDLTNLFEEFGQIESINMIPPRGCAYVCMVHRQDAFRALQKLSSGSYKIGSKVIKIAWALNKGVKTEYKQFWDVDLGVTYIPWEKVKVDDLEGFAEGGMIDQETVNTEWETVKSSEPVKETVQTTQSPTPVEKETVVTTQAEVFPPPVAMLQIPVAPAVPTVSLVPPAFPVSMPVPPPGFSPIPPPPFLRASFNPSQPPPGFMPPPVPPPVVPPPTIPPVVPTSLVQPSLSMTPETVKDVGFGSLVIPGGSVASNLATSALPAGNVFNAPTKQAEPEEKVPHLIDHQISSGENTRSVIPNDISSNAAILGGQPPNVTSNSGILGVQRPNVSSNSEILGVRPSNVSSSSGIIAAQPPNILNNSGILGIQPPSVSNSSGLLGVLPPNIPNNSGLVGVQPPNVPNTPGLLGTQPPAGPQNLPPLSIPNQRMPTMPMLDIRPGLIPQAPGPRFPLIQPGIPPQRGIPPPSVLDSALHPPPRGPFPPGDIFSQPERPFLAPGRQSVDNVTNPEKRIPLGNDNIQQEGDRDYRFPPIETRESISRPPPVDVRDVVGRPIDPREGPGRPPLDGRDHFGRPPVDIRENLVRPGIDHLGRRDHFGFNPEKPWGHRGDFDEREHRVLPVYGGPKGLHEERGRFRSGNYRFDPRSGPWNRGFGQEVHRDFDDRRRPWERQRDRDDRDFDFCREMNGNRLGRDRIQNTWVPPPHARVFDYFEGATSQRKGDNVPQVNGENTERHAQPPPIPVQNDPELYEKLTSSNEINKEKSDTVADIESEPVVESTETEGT
UniProt Q8WXD2: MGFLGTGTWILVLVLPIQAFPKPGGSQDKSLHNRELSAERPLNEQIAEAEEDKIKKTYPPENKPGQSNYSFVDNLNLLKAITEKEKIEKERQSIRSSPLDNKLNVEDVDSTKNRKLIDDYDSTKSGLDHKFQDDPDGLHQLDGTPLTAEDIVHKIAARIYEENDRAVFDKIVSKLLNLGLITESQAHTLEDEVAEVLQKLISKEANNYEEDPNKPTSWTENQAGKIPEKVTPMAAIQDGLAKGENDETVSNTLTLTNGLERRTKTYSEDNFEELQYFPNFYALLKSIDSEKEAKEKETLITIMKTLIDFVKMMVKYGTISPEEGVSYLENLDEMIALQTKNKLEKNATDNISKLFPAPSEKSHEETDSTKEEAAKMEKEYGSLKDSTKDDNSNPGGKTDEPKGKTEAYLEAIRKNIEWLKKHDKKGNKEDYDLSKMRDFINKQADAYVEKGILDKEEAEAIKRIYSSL

What was measured:
Assay in all cases: log2 fold change, soluble protein after heating vs DMSO (PISA); higher = thermal stabilisation; K562 cells, 10 uM, 30 min; active = over 0.2 and 3.5 SD of the protein, either way, in both replicates (recomputed)
[1] = compound: CS(=O)(=O)c1ccc(-c2cnc(N)c(C(=O)Nc3ccccc3)n2)cc1
How it was run: (§1)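 Soluble protein was quantified by TMTpro 16plex LC-MS/MS after channel sums were equalised. It was obtained as the supernatant after 21,000xg for 90 min from pooled aliquots of K562 cells (2×10^6 cells/mL, 10 μM compound, 30 min) heated for 3 min across 48°C-58°C and extracted in PBS with 0.5% NP-40 at 4°C. Thermal stability values are relative to control samples and come from duplicates. They are given as log2 fold changes.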

crizotinib = compound: C[C@@H](Oc1cc(-c2cnn(C3CCNCC3)c2)cnc1N)c1c(Cl)ccc(F)c1Cl [crizotinib]
How it was run: as §1

[2] = compound: C[C@@H]1COCCN1C2=NC(=NC(=C2)C3(CC3)S(=O)(=O)C)C4=C5C=CNC5=CC=C4
How it was run: as §1

[3] = compound: C[C@H](C1=CC=C(C=C1)C(=O)NC2=C3C=CNC3=NC=C2)N
How it was run: as §1

gandotinib = compound: Cc1cc(Nc2cc(CN3CCOCC3)c3nc(C)c(Cc4ccc(Cl)cc4F)n3n2)n[nH]1 [gandotinib]
How it was run: as §1

[4] = compound: Cc1cc(SCc2sc(-c3ccc(C(F)(F)F)cc3)nc2C)ccc1OCC(=O)O
How it was run: as §1

doramapimod = compound: Cc1ccc(-n2nc(C(C)(C)C)cc2NC(=O)Nc2ccc(OCCN3CCOCC3)c3ccccc23)cc1 [doramapimod]
How it was run: as §1

ispinesib = compound: Cc1ccc(C(=O)N(CCCN)[C@@H](c2nc3cc(Cl)ccc3c(=O)n2Cc2ccccc2)C(C)C)cc1 [ispinesib]
How it was run: as §1

tozasertib = compound: Cc1cc(Nc2cc(N3CCN(C)CC3)nc(Sc3ccc(NC(=O)C4CC4)cc3)n2)n[nH]1 [tozasertib]
How it was run: as §1

duvelisib = compound: C[C@H](Nc1ncnc2nc[nH]c12)c1cc2cccc(Cl)c2c(=O)n1-c1ccccc1 [duvelisib]
How it was run: as §1

Measured: log2 fold change

SCAF11 (UniProt Q99590)
inactive: [1] 0.021 | crizotinib -0.06 | [2] -0.069 | [3] 0.229 | gandotinib 0.543 | [4] -0.106 | doramapimod -0.05 | ispinesib -0.012

S100PBP (UniProt Q96BU1)
inactive: [1] -0.022 | crizotinib 0.125 | [2] 0.03 | [3] -0.425 | gandotinib -0.026 | tozasertib 0 | doramapimod 0.043 | ispinesib 0.049

SAMSN1 isoform 3 (UniProt Q9NSI8)
inactive: [1] 0.024 | crizotinib -0.082 | [2] 0.043 | [3] -0.027 | gandotinib -0.077 | [4] 0.019 | doramapimod -0.052 | ispinesib -0.069

SEC23IP (UniProt Q9Y6Y8)
inactive: [1] 0.142 | crizotinib -0.238 | [2] 0.055 | [3] 0.039 | gandotinib -0.212 | [4] 0.074 | doramapimod 0.043 | ispinesib -0.166

SDAD1 (UniProt Q9NVU7)
inactive: [1] 0.04 | crizotinib -0.362 | [2] 0.071 | [3] 0.04 | duvelisib -0.044 | gandotinib -0.035 | [4] -0.038 | doramapimod 0.166 | ispinesib -0.044

SDHB, A0A087WWT1
inactive: [1] 0.074 | crizotinib 0 | [2] 0.079 | [3] 0.164 | duvelisib 0.182 | gandotinib -0.07 | [4] -0.093 | doramapimod -0.022 | ispinesib -0.197

SDHC (UniProt Q99643)
active: [2] 0.457
inactive: [1] -0.304 | crizotinib 0.08 | [3] -0.045 | gandotinib -0.023 | [4] -0.111 | doramapimod -0.086 | ispinesib 0.047

SCO2 (UniProt O43819)
inactive: [1] 0.062 | crizotinib -0.106 | [2] 0.05 | [3] -0.016 | gandotinib 0.026 | [4] 0.061 | doramapimod -0.031 | ispinesib -0.134

SDCCAG8 (UniProt Q86SQ7)
inactive: [1] -0.15 | crizotinib 0.073 | duvelisib 0.054 | gandotinib 0.114 | tozasertib 0.357 | [4] 0.035 | doramapimod 0.09

SCNM1 (UniProt Q9BWG6)
inactive: [1] -0.035 | crizotinib -0.093 | [2] 0.111 | duvelisib 0.031 | gandotinib 0.063 | tozasertib 0.016 | [4] -0.096 | doramapimod 0.103 | ispinesib -0.053

Reprinted at random: 2 entries already listed
SCNM1 (UniProt Q9BWG6)
inactive: [1] -0.035 | crizotinib -0.093 | [2] 0.111 | duvelisib 0.031 | gandotinib 0.063 | tozasertib 0.016 | [4] -0.096 | doramapimod 0.103 | ispinesib -0.053

SDCCAG8 (UniProt Q86SQ7)
inactive: [1] -0.15 | crizotinib 0.073 | duvelisib 0.054 | gandotinib 0.114 | tozasertib 0.357 | [4] 0.035 | doramapimod 0.09

(continued)

RSRC2 (UniProt Q7L4I2)
inactive: [1] 0.02 | crizotinib 0.022 | [2] -0.018 | [3] -0.095 | gandotinib 0.052 | [4] -0.039 | doramapimod -0.022 | ispinesib 0.087

RSF1 (UniProt Q96T23)
inactive: [1] 0.056 | crizotinib -0.054 | [2] -0.002 | [3] -0.058 | gandotinib -0.104 | [4] 0.194 | doramapimod 0.043 | ispinesib 0.087

SDHAF4 (UniProt Q5VUM1)
inactive: [1] 0.033 | crizotinib -0.047 | [2] 0.153 | [3] 0.181 | [4] -0.038 | doramapimod 0.091

SCAMP2 (UniProt H3BUB6)
inactive: [1] 0.085 | crizotinib 0.128 | [2] -0.011 | [3] 0.317 | [4] -0.305 | doramapimod -0.088 | ispinesib -0.258

RWDD2B (UniProt P57060)
inactive: [1] 0.06 | crizotinib 0.117 | duvelisib 0.038 | gandotinib -0.338 | [4] 0.194 | doramapimod -0.08 | ispinesib -0.098

SAE1 (UniProt M0R286)
inactive: [1] 0.057 | crizotinib 0.065 | [2] 0.086 | [3] 0.385 | doramapimod 0.048 | ispinesib -0.184

SAYSD1 (UniProt Q9NPB0)
inactive: [1] 0.062 | [2] 0.352 | [3] -0.08

RRP9 (UniProt O43818)
inactive: [1] -0.05 | crizotinib 0.084 | [2] -0.2 | [3] 0.031 | gandotinib 0.056 | [4] -0.054 | doramapimod 0.063 | ispinesib 0.12

RSL1D1 (UniProt O76021)
inactive: [1] -0.146 | crizotinib 0.037 | [2] -0.33 | [3] 0.456 | gandotinib 0.146 | [4] -0.037 | doramapimod 0.312 | ispinesib 0.251

SCLT1 (UniProt Q96NL6)
inactive: [1] 0.148 | crizotinib 0.003 | [3] -0.081 | gandotinib 0.149 | [4] -0.028 | doramapimod 0.055

SC5D (UniProt O75845)
inactive: [1] 0.016 | [2] -0.077 | [3] -0.171 | duvelisib 0.151 | gandotinib 0.003 | tozasertib -0.13 | [4] 0.405 | ispinesib -0.06

SASH1 (UniProt O94885)
inactive: [1] 0.023 | crizotinib -0.122 | [2] -0.077 | [3] -0.024 | gandotinib -0.028 | [4] 0.198 | doramapimod -0.031 | ispinesib -0.116

S100A1 (UniProt P23297)
inactive: [1] -0.091 | crizotinib 0.046 | [2] 0.124 | doramapimod -0.007 | ispinesib -0.226

SARAF (UniProt Q96BY9)
inactive: [1] 0.102 | [2] -0.075 | [3] 0.055 | duvelisib 0.01 | gandotinib 0.092 | tozasertib -0.066 | [4] -0.016

RRP12 (UniProt Q5JTH9)
inactive: [1] -0.056 | crizotinib -0.074 | [2] -0.242 | gandotinib 0.074 | [4] 0.053 | doramapimod 0.203 | ispinesib -0.172
active: [3] 0.811

RRP7A (UniProt Q9Y3A4)
inactive: [1] 0.008 | crizotinib 0.045 | [2] -0.03 | [3] 0.295 | tozasertib 0.298 | doramapimod 0.005 | ispinesib 0.082

SART3, A0A499FI31
inactive: [1] -0.011 | crizotinib 0.097 | [2] 0.049 | [3] -0.124 | gandotinib -0.056 | [4] 0.051 | doramapimod -0.03 | ispinesib 0.038

SCD (UniProt O00767)
inactive: [1] 0.024 | crizotinib -0.2 | [2] -0.06 | [3] -0.068 | gandotinib -0.061 | [4] -0.119 | doramapimod -0.028 | ispinesib -0.319

RRP1B (UniProt Q14684)
inactive: [1] -0.023 | crizotinib -0.382 | [2] -0.194 | duvelisib -0.395 | gandotinib 0.071 | tozasertib 0.018 | [4] 0.389 | doramapimod -0.004

SCAF8 isoform 2 (UniProt Q9UPN6)
inactive: [1] 0.085 | crizotinib -0.011 | [2] 0.1 | [3] -0.018 | gandotinib -0.098 | [4] 0.065 | doramapimod 0.003 | ispinesib -0.181

RUFY3 isoform 3 (UniProt Q7L099)
active: [4] 0.617
inactive: [1] 0.017 | crizotinib 0.007 | [3] -0.085 | gandotinib -0.012 | doramapimod -0.057 | ispinesib -0.048

SCG3 (UniProt Q8WXD2)
inactive: [1] -0.069 | crizotinib 0.074 | [2] -0.089 | [3] -0.109 | gandotinib -0.101 | [4] -0.194 | doramapimod 0.124 | ispinesib 0.171
